# Assay results from paper PMC6403256, “ABHD5 blunts the sensitivity of colorectal cancer to fluorouracil via promoting autophagic uracil yield” (Nature Communications, 2019).
# By UniProt entry, the sequences of proteins in these tests, tags left out. Where a name states a change or a piece, a line headed by the entry shows the natural chain unless it says otherwise.
# UniProt O00584: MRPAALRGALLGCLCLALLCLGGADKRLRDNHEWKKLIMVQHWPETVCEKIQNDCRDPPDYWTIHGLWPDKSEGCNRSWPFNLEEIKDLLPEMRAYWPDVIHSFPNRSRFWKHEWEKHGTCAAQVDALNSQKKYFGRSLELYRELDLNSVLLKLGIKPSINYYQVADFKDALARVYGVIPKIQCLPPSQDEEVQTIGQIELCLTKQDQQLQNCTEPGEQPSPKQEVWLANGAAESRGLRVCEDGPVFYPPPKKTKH
# Results are given in words; binding and its absence hold for the method and conditions named. For some of these results: Binding seen in cells or lysates may run through a third protein. Some entries that bind do so weakly or less than the wild type. For some of these results: Where a sequence is shown, tags or fusion partners need not be part of it.
# T1: His-PDIA5 (human, UniProt Q14554 22-519)
# T1 construct: PDIA5, human, wild type; source: recombinant protein from Wuhan GeneCreate Biological Engineering Co., Ltd
# T1 sequence (looked up): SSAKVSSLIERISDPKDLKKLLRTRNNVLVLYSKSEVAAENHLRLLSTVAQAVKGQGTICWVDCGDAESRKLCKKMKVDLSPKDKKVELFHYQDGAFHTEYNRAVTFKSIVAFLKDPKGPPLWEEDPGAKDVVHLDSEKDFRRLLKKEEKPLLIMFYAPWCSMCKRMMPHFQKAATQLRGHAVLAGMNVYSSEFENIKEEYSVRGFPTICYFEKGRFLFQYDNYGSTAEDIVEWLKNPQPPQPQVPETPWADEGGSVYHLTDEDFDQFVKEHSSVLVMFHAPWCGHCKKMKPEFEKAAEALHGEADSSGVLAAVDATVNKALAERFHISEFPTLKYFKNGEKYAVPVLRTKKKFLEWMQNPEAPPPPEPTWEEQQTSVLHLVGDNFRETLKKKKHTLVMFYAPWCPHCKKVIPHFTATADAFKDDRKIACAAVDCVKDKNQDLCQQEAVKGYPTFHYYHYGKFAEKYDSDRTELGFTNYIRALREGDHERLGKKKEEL
# T2: PDIA5 (human) (UniProt Q14554)
# T2 sequence: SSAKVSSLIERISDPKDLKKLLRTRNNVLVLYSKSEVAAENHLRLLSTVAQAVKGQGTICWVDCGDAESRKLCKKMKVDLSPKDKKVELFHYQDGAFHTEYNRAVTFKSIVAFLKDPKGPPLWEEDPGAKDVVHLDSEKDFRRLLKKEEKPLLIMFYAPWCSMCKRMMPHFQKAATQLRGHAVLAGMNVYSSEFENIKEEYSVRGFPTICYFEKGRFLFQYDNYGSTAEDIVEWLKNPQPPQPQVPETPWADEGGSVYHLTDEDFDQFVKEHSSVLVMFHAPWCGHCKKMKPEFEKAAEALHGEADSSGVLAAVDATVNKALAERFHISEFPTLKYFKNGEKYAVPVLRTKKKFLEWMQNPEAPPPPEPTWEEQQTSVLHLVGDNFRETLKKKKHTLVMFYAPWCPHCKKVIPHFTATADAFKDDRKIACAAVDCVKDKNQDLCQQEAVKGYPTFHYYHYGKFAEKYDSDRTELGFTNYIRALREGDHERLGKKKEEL
# B1: ABHD5 (alpha-beta hydrolase domain-containing 5) (protein, UniProt Q8WTS1 1-349)
# chain: MAAEEEEVDSADTGERSGWLTGWLPTWCPTSISHLKEAEEKMLKCVPCTYKKEPVRISNGNKIWTLKFSHNISNKTPLVLLHGFGGGLGLWALNFGDLCTNRPVYAFDLLGFGRSSRPRFDSDAEEVENQFVESIEEWRCALGLDKMILLGHNLGGFLAAAYSLKYPSRVNHLILVEPWGFPERPDLADQDRPIPVWIRALGAALTPFNPLAGLRIAGPFGLSLVQRLRPDFKRKYSSMFEDDTVTEYIYHCNVQTPSGETAFKNMTIPYGWAKRPMLQRIGKMHPDIPVSVIFGARSCIDGNSGTSIQSLRPHSYVKTIAILGAGHYVYADQPEEFNQKVKEICDTVD
# B2: ABHD5, yeast two-hybrid fusion (protein, UniProt Q8WTS1 1-349)
# chain: MAAEEEEVDSADTGERSGWLTGWLPTWCPTSISHLKEAEEKMLKCVPCTYKKEPVRISNGNKIWTLKFSHNISNKTPLVLLHGFGGGLGLWALNFGDLCTNRPVYAFDLLGFGRSSRPRFDSDAEEVENQFVESIEEWRCALGLDKMILLGHNLGGFLAAAYSLKYPSRVNHLILVEPWGFPERPDLADQDRPIPVWIRALGAALTPFNPLAGLRIAGPFGLSLVQRLRPDFKRKYSSMFEDDTVTEYIYHCNVQTPSGETAFKNMTIPYGWAKRPMLQRIGKMHPDIPVSVIFGARSCIDGNSGTSIQSLRPHSYVKTIAILGAGHYVYADQPEEFNQKVKEICDTVD
# B3: PNPLA2 (patatin like phospholipase domain containing 2) (protein, UniProt Q96AD5 1-504)
# chain: MFPREKTWNISFAGCGFLGVYYVGVASCLREHAPFLVANATHIYGASAGALTATALVTGVCLGEAGAKFIEVSKEARKRFLGPLHPSFNLVKIIRSFLLKVLPADSHEHASGRLGISLTRVSDGENVIISHFNSKDELIQANVCSGFIPVYCGLIPPSLQGVRYVDGGISDNLPLYELKNTITVSPFSGESDICPQDSSTNIHELRVTNTSIQFNLRNLYRLSKALFPPEPLVLREMCKQGYRDGLRFLQRNGLLNRPNPLLALPPARPHGPEDKDQAVESAQAEDYSQLPGEDHILEHLPARLNEALLEACVEPTDLLTTLSNMLPVRLATAMMVPYTLPLESALSFTIRLLEWLPDVPEDIRWMKEQTGSICQYLVMRAKRKLGRHLPSRLPEQVELRRVQSLPSVPLSCAAYREALPGWMRNNLSLGDALAKWEECQRQLLLGLFCTNVAFPPEALRMRAPADPAPAPADPASPQHQLAGPAPLLSTPAPEARPVIGALGL
# Key:
# [1] = molecular target: T1, His-PDIA5; test: pull-down; competitive binding: 50 ug GST-RNASET2 mixed with 0, 50, 100, 200 ug GST-ABHD5, incubated with 50 ug immobilized His-PDIA5 at 4 C for 4 h; detected by blot; both purified
# [2] = molecular target: T2, PDIA5 (human); test: co-IP; immunoprecipitation and Western blot; cell line, bait and buffer not stated
# [3] = molecular target: RNASET2, yeast two-hybrid fusion (human) (UniProt O00584); test: two-hybrid; yeast two-hybrid; bait and prey not stated
Molecule,binding [2],other results
GST-RNASET2 (from UniProt O00584 25-256) (enzyme),–,binding [1]: binds
B1,binds,–
B2,–,binding [3]: no binding
B3,no binding,–
